Assay results from the supplement of paper PMC10849652.
This is one part of the list.

Protein sequences, listed by entry. Tags and fused reporters are not part of them. Lines headed by an entry give the natural chain unless they say otherwise; changes in a name come on top.
UniProt Q8N697: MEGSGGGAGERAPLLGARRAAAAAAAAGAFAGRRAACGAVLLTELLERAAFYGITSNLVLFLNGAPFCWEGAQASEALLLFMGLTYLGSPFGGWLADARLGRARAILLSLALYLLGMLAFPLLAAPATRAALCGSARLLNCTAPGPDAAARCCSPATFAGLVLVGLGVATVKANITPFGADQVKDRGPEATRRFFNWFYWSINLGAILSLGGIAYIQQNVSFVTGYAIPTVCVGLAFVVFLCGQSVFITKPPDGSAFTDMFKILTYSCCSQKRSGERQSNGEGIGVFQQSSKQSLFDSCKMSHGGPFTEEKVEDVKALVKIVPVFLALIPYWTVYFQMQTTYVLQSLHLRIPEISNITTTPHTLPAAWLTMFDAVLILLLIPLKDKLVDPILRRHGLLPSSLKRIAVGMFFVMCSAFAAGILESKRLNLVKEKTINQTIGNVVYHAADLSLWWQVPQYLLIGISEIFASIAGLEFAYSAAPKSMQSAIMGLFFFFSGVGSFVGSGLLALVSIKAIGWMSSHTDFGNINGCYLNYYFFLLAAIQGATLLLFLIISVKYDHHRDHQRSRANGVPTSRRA
UniProt Q8N755: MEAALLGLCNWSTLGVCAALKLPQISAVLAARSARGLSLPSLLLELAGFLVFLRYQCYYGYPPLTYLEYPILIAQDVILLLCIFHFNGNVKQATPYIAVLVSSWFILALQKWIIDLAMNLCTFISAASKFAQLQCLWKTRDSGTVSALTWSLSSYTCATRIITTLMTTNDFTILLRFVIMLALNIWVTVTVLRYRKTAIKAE
UniProt Q6YBV0: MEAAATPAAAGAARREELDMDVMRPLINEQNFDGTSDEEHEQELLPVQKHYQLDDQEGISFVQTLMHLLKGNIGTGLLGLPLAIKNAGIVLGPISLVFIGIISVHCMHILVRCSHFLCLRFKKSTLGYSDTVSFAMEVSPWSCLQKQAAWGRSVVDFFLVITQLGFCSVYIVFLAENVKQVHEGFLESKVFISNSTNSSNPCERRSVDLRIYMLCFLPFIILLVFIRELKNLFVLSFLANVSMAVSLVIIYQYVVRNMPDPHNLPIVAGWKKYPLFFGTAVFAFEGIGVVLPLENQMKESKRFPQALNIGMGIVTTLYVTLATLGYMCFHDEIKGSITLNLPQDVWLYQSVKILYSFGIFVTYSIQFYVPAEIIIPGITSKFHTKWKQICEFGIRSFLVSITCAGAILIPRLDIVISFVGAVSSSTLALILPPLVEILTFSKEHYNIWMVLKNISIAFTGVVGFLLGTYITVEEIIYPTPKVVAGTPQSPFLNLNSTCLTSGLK
UniProt Q7Z2H8: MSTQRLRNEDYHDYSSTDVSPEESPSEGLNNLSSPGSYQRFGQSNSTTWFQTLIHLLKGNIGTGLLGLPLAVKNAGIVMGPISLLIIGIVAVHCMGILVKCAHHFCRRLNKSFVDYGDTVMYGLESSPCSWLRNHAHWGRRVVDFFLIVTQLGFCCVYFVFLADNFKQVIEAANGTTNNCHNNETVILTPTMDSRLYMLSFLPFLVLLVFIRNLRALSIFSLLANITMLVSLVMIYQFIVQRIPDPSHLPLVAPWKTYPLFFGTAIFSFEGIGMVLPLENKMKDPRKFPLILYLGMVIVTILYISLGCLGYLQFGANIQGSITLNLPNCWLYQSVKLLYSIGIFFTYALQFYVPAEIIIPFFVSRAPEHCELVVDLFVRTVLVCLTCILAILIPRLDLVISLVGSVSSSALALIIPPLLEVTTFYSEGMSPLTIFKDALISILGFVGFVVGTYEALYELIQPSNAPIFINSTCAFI
UniProt Q969S0: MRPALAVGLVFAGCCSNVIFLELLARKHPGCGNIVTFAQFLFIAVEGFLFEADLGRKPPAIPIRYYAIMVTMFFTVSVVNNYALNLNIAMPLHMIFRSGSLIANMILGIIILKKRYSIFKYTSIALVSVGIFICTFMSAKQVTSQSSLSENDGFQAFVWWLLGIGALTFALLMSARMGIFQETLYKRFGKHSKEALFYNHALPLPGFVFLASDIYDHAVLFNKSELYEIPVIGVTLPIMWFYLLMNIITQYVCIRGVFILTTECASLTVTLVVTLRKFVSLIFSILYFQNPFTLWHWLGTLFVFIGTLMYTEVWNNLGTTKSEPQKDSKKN
UniProt Q9NQQ7: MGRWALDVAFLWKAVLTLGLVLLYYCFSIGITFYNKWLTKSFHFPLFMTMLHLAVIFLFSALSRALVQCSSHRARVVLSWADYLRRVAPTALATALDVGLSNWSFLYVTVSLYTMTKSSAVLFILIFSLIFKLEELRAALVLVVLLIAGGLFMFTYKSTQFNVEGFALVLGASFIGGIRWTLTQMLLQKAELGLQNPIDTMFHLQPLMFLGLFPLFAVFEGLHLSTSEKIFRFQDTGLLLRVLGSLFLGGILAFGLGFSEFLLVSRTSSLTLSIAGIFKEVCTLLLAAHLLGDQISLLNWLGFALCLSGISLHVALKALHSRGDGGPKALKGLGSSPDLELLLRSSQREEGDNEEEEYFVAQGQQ
UniProt Q9BRV3: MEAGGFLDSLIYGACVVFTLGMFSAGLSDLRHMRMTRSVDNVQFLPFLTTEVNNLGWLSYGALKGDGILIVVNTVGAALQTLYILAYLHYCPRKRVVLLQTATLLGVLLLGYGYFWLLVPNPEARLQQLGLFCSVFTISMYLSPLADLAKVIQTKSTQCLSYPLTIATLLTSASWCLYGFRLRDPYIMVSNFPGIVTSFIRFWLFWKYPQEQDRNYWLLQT
UniProt Q8N2U9: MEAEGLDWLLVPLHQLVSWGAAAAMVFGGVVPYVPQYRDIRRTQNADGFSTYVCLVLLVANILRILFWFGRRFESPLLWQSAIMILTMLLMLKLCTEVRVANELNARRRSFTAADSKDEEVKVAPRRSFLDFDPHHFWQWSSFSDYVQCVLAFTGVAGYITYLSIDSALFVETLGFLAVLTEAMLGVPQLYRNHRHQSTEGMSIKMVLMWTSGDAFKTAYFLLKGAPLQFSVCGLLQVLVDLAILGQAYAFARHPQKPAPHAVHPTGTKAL
UniProt P48751: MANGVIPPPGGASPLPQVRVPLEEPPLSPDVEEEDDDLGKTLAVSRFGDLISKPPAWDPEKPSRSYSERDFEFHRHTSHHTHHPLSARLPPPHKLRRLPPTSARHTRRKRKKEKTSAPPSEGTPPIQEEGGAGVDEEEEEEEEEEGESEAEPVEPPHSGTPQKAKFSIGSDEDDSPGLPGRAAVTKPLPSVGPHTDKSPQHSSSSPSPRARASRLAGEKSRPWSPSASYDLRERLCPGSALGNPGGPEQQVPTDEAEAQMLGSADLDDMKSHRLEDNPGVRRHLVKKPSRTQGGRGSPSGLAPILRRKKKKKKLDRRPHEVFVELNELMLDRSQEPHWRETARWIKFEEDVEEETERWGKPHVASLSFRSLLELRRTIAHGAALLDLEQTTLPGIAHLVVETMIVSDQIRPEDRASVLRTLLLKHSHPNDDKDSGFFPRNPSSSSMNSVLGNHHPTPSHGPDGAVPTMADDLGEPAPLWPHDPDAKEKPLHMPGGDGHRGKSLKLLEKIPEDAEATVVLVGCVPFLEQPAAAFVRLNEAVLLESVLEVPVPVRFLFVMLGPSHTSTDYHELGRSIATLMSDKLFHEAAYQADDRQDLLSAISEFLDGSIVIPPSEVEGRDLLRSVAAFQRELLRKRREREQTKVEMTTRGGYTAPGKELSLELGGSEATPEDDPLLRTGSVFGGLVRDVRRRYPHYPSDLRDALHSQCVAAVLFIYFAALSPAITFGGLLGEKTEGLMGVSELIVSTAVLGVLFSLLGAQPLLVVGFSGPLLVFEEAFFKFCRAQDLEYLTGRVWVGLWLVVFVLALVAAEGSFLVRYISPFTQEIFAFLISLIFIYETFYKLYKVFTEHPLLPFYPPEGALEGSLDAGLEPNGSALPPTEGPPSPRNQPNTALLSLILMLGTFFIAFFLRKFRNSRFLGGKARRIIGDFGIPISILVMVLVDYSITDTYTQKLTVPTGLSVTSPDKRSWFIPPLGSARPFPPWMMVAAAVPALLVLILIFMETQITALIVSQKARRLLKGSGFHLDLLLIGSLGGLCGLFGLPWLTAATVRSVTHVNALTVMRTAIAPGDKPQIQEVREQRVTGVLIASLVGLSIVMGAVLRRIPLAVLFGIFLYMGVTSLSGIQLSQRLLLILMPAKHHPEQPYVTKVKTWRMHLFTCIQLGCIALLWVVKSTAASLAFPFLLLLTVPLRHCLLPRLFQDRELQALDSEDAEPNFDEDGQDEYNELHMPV
UniProt Q9H015: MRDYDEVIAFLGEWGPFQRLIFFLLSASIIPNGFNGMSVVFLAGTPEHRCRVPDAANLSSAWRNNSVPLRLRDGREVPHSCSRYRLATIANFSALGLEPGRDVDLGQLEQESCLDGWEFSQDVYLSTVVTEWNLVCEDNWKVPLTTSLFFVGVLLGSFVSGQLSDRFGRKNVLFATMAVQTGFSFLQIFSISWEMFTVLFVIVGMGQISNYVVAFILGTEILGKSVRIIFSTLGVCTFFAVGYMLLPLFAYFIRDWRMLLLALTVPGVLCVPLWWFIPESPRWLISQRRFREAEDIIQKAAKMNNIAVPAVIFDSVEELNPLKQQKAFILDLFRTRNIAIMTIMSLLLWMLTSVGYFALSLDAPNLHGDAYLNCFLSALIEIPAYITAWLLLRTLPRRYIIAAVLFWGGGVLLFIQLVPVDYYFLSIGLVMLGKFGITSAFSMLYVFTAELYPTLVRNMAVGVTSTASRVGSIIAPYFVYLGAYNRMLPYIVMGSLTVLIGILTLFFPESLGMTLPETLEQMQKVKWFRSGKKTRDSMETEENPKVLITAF
UniProt F5GZS6: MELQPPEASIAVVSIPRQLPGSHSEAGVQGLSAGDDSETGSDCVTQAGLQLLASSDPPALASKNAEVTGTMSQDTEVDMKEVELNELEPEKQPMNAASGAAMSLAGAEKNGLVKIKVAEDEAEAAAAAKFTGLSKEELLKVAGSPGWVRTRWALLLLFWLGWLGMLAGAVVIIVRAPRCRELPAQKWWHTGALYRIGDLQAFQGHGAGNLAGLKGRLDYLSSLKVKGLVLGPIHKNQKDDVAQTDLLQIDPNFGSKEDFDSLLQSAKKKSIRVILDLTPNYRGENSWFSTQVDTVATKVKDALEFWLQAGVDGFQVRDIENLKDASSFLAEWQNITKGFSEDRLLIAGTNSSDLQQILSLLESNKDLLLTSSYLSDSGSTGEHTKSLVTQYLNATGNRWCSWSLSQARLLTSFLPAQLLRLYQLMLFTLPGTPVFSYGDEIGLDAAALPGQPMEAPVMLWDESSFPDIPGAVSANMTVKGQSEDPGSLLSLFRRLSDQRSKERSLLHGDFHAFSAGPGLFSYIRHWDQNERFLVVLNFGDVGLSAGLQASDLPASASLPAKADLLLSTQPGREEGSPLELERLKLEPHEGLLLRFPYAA
UniProt Q9NTN3, whole entry, looked up: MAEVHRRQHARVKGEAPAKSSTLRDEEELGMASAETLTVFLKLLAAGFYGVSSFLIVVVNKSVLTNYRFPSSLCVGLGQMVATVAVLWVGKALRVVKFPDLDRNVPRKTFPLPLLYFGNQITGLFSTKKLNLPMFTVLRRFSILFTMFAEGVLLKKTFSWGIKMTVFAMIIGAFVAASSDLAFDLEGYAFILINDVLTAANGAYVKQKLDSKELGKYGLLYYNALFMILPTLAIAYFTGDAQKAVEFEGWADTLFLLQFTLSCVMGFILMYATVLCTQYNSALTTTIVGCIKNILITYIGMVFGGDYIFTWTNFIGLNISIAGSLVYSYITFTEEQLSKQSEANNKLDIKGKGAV
UniProt O15431: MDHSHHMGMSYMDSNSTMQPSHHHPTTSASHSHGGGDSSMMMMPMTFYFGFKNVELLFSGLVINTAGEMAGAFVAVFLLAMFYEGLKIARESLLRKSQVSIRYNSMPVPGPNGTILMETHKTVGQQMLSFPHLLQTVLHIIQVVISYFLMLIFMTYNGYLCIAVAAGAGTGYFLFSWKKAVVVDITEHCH
UniProt Q9HAB3: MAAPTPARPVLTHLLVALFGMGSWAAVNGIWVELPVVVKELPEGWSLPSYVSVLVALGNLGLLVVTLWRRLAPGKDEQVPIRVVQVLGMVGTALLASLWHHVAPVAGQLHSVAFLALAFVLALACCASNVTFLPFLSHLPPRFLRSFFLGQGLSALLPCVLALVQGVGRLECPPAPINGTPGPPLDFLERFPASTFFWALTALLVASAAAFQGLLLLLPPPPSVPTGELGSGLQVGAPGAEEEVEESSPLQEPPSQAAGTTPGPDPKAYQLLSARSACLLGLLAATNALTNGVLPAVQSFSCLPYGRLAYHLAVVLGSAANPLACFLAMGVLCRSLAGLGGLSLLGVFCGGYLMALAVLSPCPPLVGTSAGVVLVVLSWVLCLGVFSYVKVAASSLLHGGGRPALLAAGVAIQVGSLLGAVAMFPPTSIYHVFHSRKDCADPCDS

Experiments:
Experiment in all cases: log2 fold change, soluble protein after heating vs DMSO (PISA); higher = thermal stabilisation; K562 cells, 10 uM, 30 min; active = over 0.2 and 3.5 SD of the protein, either way, in both replicates (recomputed)
[1] = compound: CC1=C(C=C(C=C1)NC(=O)C2=CC(=CC=C2)C(C)(C)C#N)NC3=CC4=C(C=C3)N=CN(C4=O)C
Method in brief: (§1)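 K562 cells at 2×10^6 cells/mL were treated for 30 min with 10 μM compound, and aliquots were heated for 3 min over 48°C-58°C before pooling. Extraction used PBS with 0.5% NP-40 at 4°C, and soluble protein was the supernatant after 21,000xg for 90 min, measured by TMTpro 16plex LC-MS/MS with channel sums equalised. Thermal stability values, relative to control samples and from duplicates, are log2 fold changes.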

[2] = compound: CC1=CC=C(C=C1)SC2=C3C=C(SC3=CN=C2)C(=O)N
Method in brief: as §1

[3] = compound: CCCCN(Cc1ccc(C(=O)NO)cc1)C(=O)Nc1ccccc1 [Nexturastat A]
Method in brief: as §1

[4] = compound: CCCS(=O)(=O)Nc1ccc(F)c(C(=O)c2c[nH]c3ncc(Cl)cc23)c1F
Method in brief: as §1

[5] = compound: CCN(CC)Cc1ccc2cc(COC(=O)Nc3ccc(C(=O)NO)cc3)ccc2c1 [givinostat]
Method in brief: as §1

[6] = compound: CC1=NC(=CC=C1)C2=C(N=C(N2)C(C)(C)C)C3=CC4=NC=CN=C4C=C3
Method in brief: as §1

[7] = compound: CCCS(=O)(=O)Nc1ccc(F)c(C(=O)c2c[nH]c3ncc(-c4ccc(Cl)cc4)cc23)c1F [vemurafenib]
Method in brief: as §1

[8] = compound: CC1=C(C=C(C=C1)NC(=O)C2=CC(=CC=C2)N(C)C)NC(=O)C3=CC=C(C=C3)O
Method in brief: as §1

[9] = compound: CCCc1cc(C)[nH]c(=O)c1CNC(=O)c1cc(-c2ccnc(N3CCN(C)CC3)c2)cc2c1cnn2C(C)C
Method in brief: as §1

[10] = compound: CCN(CCCOc1ccc2c(Nc3cc(CC(=O)Nc4cccc(F)c4)[nH]n3)ncnc2c1)CCOP(=O)(O)O [barasertib]
Method in brief: as §1

Measured: log2 fold change

SLC35E3 (UniProt Q7Z769)
inactive: [1] 0.402 | [2] 0.086 | [3] 0.011 | [4] 0.075 | [5] 0.032

SLC25A35 (UniProt Q3KQZ1)
inactive: [2] -0.188 | [6] -0.033 | [7] -0.037 | [4] 0.118 | [5] 0.034

SLC35A5 (UniProt Q9BS91)
inactive: [3] -0.039 | [5] 0.147

SLC15A4 (UniProt Q8N697)
inactive: [8] -0.014 | [2] 0.084 | [6] 0.052 | [7] -0.068 | [4] -0.065 | [9] 0.002 | [5] 0.045 | [10] -0.034

SLC39A1 (UniProt Q9NY26)
inactive: [5] -0.157

SLC25A28 (UniProt Q96A46)
inactive: [1] -0.019 | [2] -0.17 | [4] 0.009 | [10] -0.065

SLC39A9 (UniProt Q9NUM3)
inactive: [7] -0.21

SLC66A3 (UniProt Q8N755)
inactive: [1] 0.171 | [3] 0.019 | [9] 0.261 | [5] 0.074

SLC35E1 (UniProt Q96K37)
inactive: [8] -0.052 | [2] 0.047 | [6] 0.028 | [3] 0.159 | [7] 0.001 | [4] 0.081 | [9] -0.146 | [5] -0.019 | [10] -0.038

SLC36A4 (UniProt Q6YBV0)
inactive: [8] -0.04 | [3] 0.091 | [9] -0.162 | [5] 0.127 | [10] 0.038

SLC23A2 (UniProt Q9UGH3)
inactive: [1] -0.049 | [6] -0.046 | [5] -0.068 | [10] 0.596

SLC35C1 (UniProt Q96A29)
inactive: [8] 0.05 | [2] -0.074 | [6] -0.07 | [3] -0.155 | [7] 0.033 | [4] -0.038 | [5] -0.043 | [10] -0.008

SLC36A1 (UniProt Q7Z2H8)
inactive: [6] 0.116 | [9] 0.052 | [5] -0.032

SLC35B4 (UniProt Q969S0)
inactive: [1] 0.018 | [6] -0.064 | [3] -0.061 | [7] 0.062 | [9] -0.002 | [5] 0.077 | [10] -0.01

SLC22A23 (UniProt A1A5C7)
inactive: [8] -0.184 | [2] 0.075 | [6] -0.007 | [4] 0.086 | [9] 0.009 | [5] -0.061

SLC26A2 (UniProt P50443)
inactive: [6] 0.064 | [3] 0.164 | [7] -0.036 | [9] 0.047

SLC46A1 (UniProt Q96NT5)
inactive: [7] 0.056 | [5] 0.011

Taken from the entries so far (8 entries):
SLC35E1 (UniProt Q96K37)
inactive: [8] -0.052 | [2] 0.047 | [6] 0.028 | [3] 0.159 | [7] 0.001 | [4] 0.081 | [9] -0.146 | [5] -0.019 | [10] -0.038

SLC36A4 (UniProt Q6YBV0)
inactive: [8] -0.04 | [3] 0.091 | [9] -0.162 | [5] 0.127 | [10] 0.038

SLC23A2 (UniProt Q9UGH3)
inactive: [1] -0.049 | [6] -0.046 | [5] -0.068 | [10] 0.596

SLC35C1 (UniProt Q96A29)
inactive: [8] 0.05 | [2] -0.074 | [6] -0.07 | [3] -0.155 | [7] 0.033 | [4] -0.038 | [5] -0.043 | [10] -0.008

SLC36A1 (UniProt Q7Z2H8)
inactive: [6] 0.116 | [9] 0.052 | [5] -0.032

SLC35B4 (UniProt Q969S0)
inactive: [1] 0.018 | [6] -0.064 | [3] -0.061 | [7] 0.062 | [9] -0.002 | [5] 0.077 | [10] -0.01

SLC22A23 (UniProt A1A5C7)
inactive: [8] -0.184 | [2] 0.075 | [6] -0.007 | [4] 0.086 | [9] 0.009 | [5] -0.061

SLC26A2 (UniProt P50443)
inactive: [6] 0.064 | [3] 0.164 | [7] -0.036 | [9] 0.047

More records follow.

SLC35C2 isoform 3 (UniProt Q9NQQ7)
inactive: [8] -0.102 | [6] -0.07 | [3] 0.037 | [5] 0.077 | [10] -0.062

SLC50A1 (UniProt Q9BRV3)
inactive: [8] 0.012 | [2] 0.03 | [6] 0.044 | [4] -0.141 | [9] 0.143 | [5] 0.141 | [10] 0.091

SLC66A2 (UniProt Q8N2U9)
inactive: [3] 0.013 | [9] -0.04 | [5] -0.091 | [10] 0.139

SLC6A19 (UniProt Q695T7)
inactive: [2] -0.145 | [4] -0.218 | [9] -0.106

SLC27A6 (UniProt Q9Y2P4)
inactive: [8] -0.02 | [3] 0.197 | [7] 0.267 | [9] 0.011 | [5] -0.005 | [10] -0.101

SLC10A7 isoform 1 (UniProt Q0GE19)
inactive: [8] 0.11 | [2] 0.046 | [4] 0.033 | [9] -0.109 | [5] -0.053 | [10] -0.029

SLC25A14 isoform 3 (UniProt O95258)
inactive: [8] 0.003 | [2] -0.016 | [6] -0.045 | [7] -0.05 | [4] 0.028 | [9] -0.116 | [5] 0.02 | [10] 0

SLC4A3 isoform 3 (UniProt P48751)
inactive: [9] -0.198 | [10] 0.061

SLC25A29 (UniProt Q8N8R3)
inactive: [8] -0.07 | [2] 0.07 | [6] -0.016 | [4] 0.047 | [5] -0.172

SLC36A1 (UniProt E5RG64)
inactive: [10] 0.14

SLC26A11 (UniProt I3L0N9)
inactive: [10] 0.261

SLC22A4 (UniProt Q9H015)
inactive: [8] 0.193 | [2] -0.154 | [3] -0.044 | [7] -0.051 | [4] -0.107

SLC1A3 (UniProt P43003)
inactive: [8] -0.047 | [2] 0.043 | [3] -0.099 | [7] -0.043 | [4] -0.095 | [9] -0.127 | [5] -0.1 | [10] -0.01

SLC3A2 (UniProt F5GZS6)
inactive: [8] 0.093 | [2] -0.07 | [6] 0.189 | [3] 0.011 | [7] 0.13 | [4] -0.168 | [9] -0.061 | [5] 0.251 | [10] -0.014

SLC35D1 (UniProt Q9NTN3)
inactive: [2] -0.052 | [7] 0.012 | [4] 0.065

SLC31A1 (UniProt O15431)
inactive: [8] -0.112 | [2] 0 | [6] 0.019 | [3] 0.028 | [7] 0.011 | [4] -0.028 | [9] 0.043 | [5] 0.033 | [10] 0.031

SLC52A2 (UniProt Q9HAB3)
inactive: [9] -0.021 | [5] -0.005 | [10] -0.027
